PubChem BioAssay AID1224830 | NIAID, 2016

Test: 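Host factors that control LPS-induced TNF expression in human macrophages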 (primary screen)
Cell system: human THP-1 monocytic leukaemia cells, TNF dual-luciferase reporter clone, PMA-differentiated to macrophage-like cells
Reagents: siRNA pool against human genes, 50 nM
Time to read-out: LPS for 4 h, given about 3 days after siRNA transfection
Treatment: bacterial LPS (TLR4 ligand), 10 ng/ml
Measured: 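TNF firefly reporter luminescence divided by renilla, normalised to the plate median, then turned into a robust z-score for each replicate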
Direction: TNF reporter robust z-score: higher = stronger TNF reporter response to LPS
Hit rule: 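a well is active when its z-score exceeds 2.8 or falls below -1.5; control wells carry no call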
Here is one part, drawn at random, of about 18,000 reagents. About 2,900 of them (16%) were called active. 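Calls are made per well; low scores hint the gene aids the LPS response, high scores that it dampens it.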 Repeated entries: four replicate wells of each siRNA pool.

| target | PubChem SID | TNF reporter robust z-score | Call |
| --- | --- | --- | --- |
| IKBKG | SID315452619 | -1.16 | inactive |
| IKBKG | SID315452619 | -0.37 | inactive |
| IKBKG | SID315452619 | -0.68 | inactive |
| IKBKG | SID315452619 | -0.78 | inactive |
| OR52N2 (olfactory receptor family 52 subfamily N member 2) | SID315464604 | 0.2 | inactive |
| OR52N2 (olfactory receptor family 52 subfamily N member 2) | SID315464604 | 0.38 | inactive |
| OR52N2 (olfactory receptor family 52 subfamily N member 2) | SID315464604 | 0.37 | inactive |
| OR52N2 (olfactory receptor family 52 subfamily N member 2) | SID315464604 | -0.22 | inactive |
| HIGD1A (HIG1 hypoxia inducible domain family member 1A) | SID315455602 | 0.49 | inactive |
| HIGD1A (HIG1 hypoxia inducible domain family member 1A) | SID315455602 | 1.39 | inactive |
| HIGD1A (HIG1 hypoxia inducible domain family member 1A) | SID315455602 | 2.33 | inactive |
| HIGD1A (HIG1 hypoxia inducible domain family member 1A) | SID315455602 | 1.24 | inactive |
| EGFL8 (EGF like domain multiple 8) | SID315459834 | -1.7 | active |
| EGFL8 (EGF like domain multiple 8) | SID315459834 | -1.31 | inactive |
| EGFL8 (EGF like domain multiple 8) | SID315459834 | -0.81 | inactive |
| EGFL8 (EGF like domain multiple 8) | SID315459834 | -0.77 | inactive |
| ECE2 (endothelin converting enzyme 2) | SID315453506 | -0.04 | inactive |
| ECE2 (endothelin converting enzyme 2) | SID315453506 | 0.77 | inactive |
| ECE2 (endothelin converting enzyme 2) | SID315453506 | -0.23 | inactive |
| ECE2 (endothelin converting enzyme 2) | SID315453506 | 0.5 | inactive |
| ECE2 (endothelin converting enzyme 2) | SID315453506 | 0.64 | inactive |
| ECE2 (endothelin converting enzyme 2) | SID315453506 | 0.79 | inactive |
| ECE2 (endothelin converting enzyme 2) | SID315453506 | 0.2 | inactive |
| ECE2 (endothelin converting enzyme 2) | SID315453506 | -0.45 | inactive |
| KLHL26 (kelch like family member 26) | SID315457573 | -0.41 | inactive |
| KLHL26 (kelch like family member 26) | SID315457573 | -0.92 | inactive |
| KLHL26 (kelch like family member 26) | SID315457573 | -0.87 | inactive |
| KLHL26 (kelch like family member 26) | SID315457573 | -0.3 | inactive |
| MYOZ2 (myozenin 2) | SID315456893 | -0.04 | inactive |
| MYOZ2 (myozenin 2) | SID315456893 | -0.29 | inactive |
| MYOZ2 (myozenin 2) | SID315456893 | 0.8 | inactive |
| MYOZ2 (myozenin 2) | SID315456893 | -0.09 | inactive |
| OR10H1 (olfactory receptor family 10 subfamily H member 1) | SID315455815 | -1.17 | inactive |
| OR10H1 (olfactory receptor family 10 subfamily H member 1) | SID315455815 | -0.58 | inactive |
| OR10H1 (olfactory receptor family 10 subfamily H member 1) | SID315455815 | -1 | inactive |
| OR10H1 (olfactory receptor family 10 subfamily H member 1) | SID315455815 | -1.03 | inactive |
| AMZ2 (archaelysin family metallopeptidase 2) | SID315456646 | 0.42 | inactive |
| AMZ2 (archaelysin family metallopeptidase 2) | SID315456646 | -0.22 | inactive |
| AMZ2 (archaelysin family metallopeptidase 2) | SID315456646 | 0.7 | inactive |
| NUDT3 (nudix hydrolase 3) | SID315454654 | -0.7 | inactive |
| NUDT3 (nudix hydrolase 3) | SID315454654 | 1.26 | inactive |
| NUDT3 (nudix hydrolase 3) | SID315454654 | 0.58 | inactive |
| NUDT3 (nudix hydrolase 3) | SID315454654 | -0.74 | inactive |
| ARL2 (ARF like GTPase 2) | SID315447406 | 4.26 | active |
| ARL2 (ARF like GTPase 2) | SID315447406 | 0.25 | inactive |
| ARL2 (ARF like GTPase 2) | SID315447406 | 1.04 | inactive |
| ARL2 (ARF like GTPase 2) | SID315447406 | 0.33 | inactive |
| PDCD10 (programmed cell death 10) | SID315454706 | 0.32 | inactive |
| PDCD10 (programmed cell death 10) | SID315454706 | 0.6 | inactive |
| PDCD10 (programmed cell death 10) | SID315454706 | -1.01 | inactive |
| PDCD10 (programmed cell death 10) | SID315454706 | -1.17 | inactive |
| UMODL1 (uromodulin like 1) | SID315460728 | -0.99 | inactive |
| UMODL1 (uromodulin like 1) | SID315460728 | -0.77 | inactive |
| UMODL1 (uromodulin like 1) | SID315460728 | -0.6 | inactive |
| UMODL1 (uromodulin like 1) | SID315460728 | -0.98 | inactive |
| PVR (PVR cell adhesion molecule) | SID315450985 | 1.93 | inactive |
| PVR (PVR cell adhesion molecule) | SID315450985 | 2.7 | inactive |
| PVR (PVR cell adhesion molecule) | SID315450985 | 3.33 | active |
| PVR (PVR cell adhesion molecule) | SID315450985 | 2.3 | inactive |
| LCAT (lecithin-cholesterol acyltransferase) | SID315449738 | -0.46 | inactive |
| LCAT (lecithin-cholesterol acyltransferase) | SID315449738 | 0.38 | inactive |
| LCAT (lecithin-cholesterol acyltransferase) | SID315449738 | 0.66 | inactive |
| GPNMB (glycoprotein nmb) | SID315454103 | -0.8 | inactive |
| GPNMB (glycoprotein nmb) | SID315454103 | 0.16 | inactive |
| GPNMB (glycoprotein nmb) | SID315454103 | -0.49 | inactive |
| GPNMB (glycoprotein nmb) | SID315454103 | 0.08 | inactive |
| XPO6 (exportin 6) | SID315455078 | 0.03 | inactive |
| XPO6 (exportin 6) | SID315455078 | 0.35 | inactive |
| XPO6 (exportin 6) | SID315455078 | -0.15 | inactive |
| XPO6 (exportin 6) | SID315455078 | 0.33 | inactive |
| GCK (glucokinase) | SID315448862 | 0.57 | inactive |
| GCK (glucokinase) | SID315448862 | -0.01 | inactive |
| GCK (glucokinase) | SID315448862 | 0.45 | inactive |
| GCK (glucokinase) | SID315448862 | 1.16 | inactive |
| HCRT (hypocretin neuropeptide precursor) | SID315449167 | 0 | inactive |
| HCRT (hypocretin neuropeptide precursor) | SID315449167 | 0.55 | inactive |
| HCRT (hypocretin neuropeptide precursor) | SID315449167 | 0.89 | inactive |
| HCRT (hypocretin neuropeptide precursor) | SID315449167 | 0.83 | inactive |

7 of these entries, reformatted.
MYOZ2 (myozenin 2) [SID315456893]: TNF reporter robust z-score = -0.09; Call = inactive
OR10H1 (olfactory receptor family 10 subfamily H member 1) [SID315455815]: TNF reporter robust z-score = -1.17; Call = inactive
OR10H1 (olfactory receptor family 10 subfamily H member 1) [SID315455815]: TNF reporter robust z-score = -0.58; Call = inactive
OR10H1 (olfactory receptor family 10 subfamily H member 1) [SID315455815]: TNF reporter robust z-score = -1; Call = inactive
OR10H1 (olfactory receptor family 10 subfamily H member 1) [SID315455815]: TNF reporter robust z-score = -1.03; Call = inactive
AMZ2 (archaelysin family metallopeptidase 2) [SID315456646]: TNF reporter robust z-score = 0.42; Call = inactive
AMZ2 (archaelysin family metallopeptidase 2) [SID315456646]: TNF reporter robust z-score = -0.22; Call = inactive
